The values that follow come from PubChem BioAssay AID328 (DTP/NCI, 2004).

The subject of this assay is BDF1 mice, P388 leukemia ip, median survival T/C. As to the kind of experiment: NCI In Vivo Anticancer Drug Screen. Data for tumor model P388 Leukemia (intraperitoneal) in B6D2F1 (BDF1) mice. The conditions noted are these: T/C endpoint: median survival time, higher T/C = longer survival. Put shortly: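 Each value expresses how treatment altered survival: treated-mouse outcome over vehicle-mouse outcome, both groups bearing the transplanted tumour.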

[1] abbreviates: dose: 200.0 mg/kg/injection, schedule: Q01DX009 (ip), vehicle: water.
[2] abbreviates: dose: 50.0 mg/kg/injection, schedule: Q01DX009 (ip), vehicle: saline with Tween-80.
Setting [3] is: dose: 200.0 mg/kg/injection, schedule: Q01DX009 (ip), vehicle: saline with Tween-80.
Where [4] appears, read: dose: 25.0 mg/kg/injection, schedule: Q01DX009 (ip), vehicle: saline.
The mark [5] stands for this setting: dose: 120.0 mg/kg/injection, schedule: Q01DX010 (ip), vehicle: saline.
[6] abbreviates: dose: 100.0 mg/kg/injection, schedule: Q01DX009 (ip), vehicle: saline.
Where [7] appears, read: dose: 400.0 mg/kg/injection, schedule: Q04DX003 (ip), vehicle: saline.
The mark [8] stands for this setting: dose: 12.5 mg/kg/injection, schedule: Q04DX003 (ip), vehicle: saline with Tween-80.

The list is a part of this screen's results and no random one: it gathers tests that were run many times, whatever their T/C, doses with no T/C, and many T/C values between a quarter and a half above the control. Further doses and runs are listed elsewhere. T/C: endpoint of the treated group in % of that of the vehicle group. Some doses have a count of surviving animals in place of a T/C: the source files T/C as zero there, which appears to mark a toxic dose or a test without result, not a measured value. Some survivor counts are full or nearly so, which does not show that the dose was tolerated: survival well below the control is almost never listed, so the zero probably covers shortened survival too. Counts of survivors are from the toxicity check (mostly the fifth day) where no day follows; animals may have died later. Schedules are NCI's codes, taken here to give the interval after Q, in days (D) or hours (H), and the number of doses after X. Some entries were tested several times; their values stand side by side, smallest first. Where survival is the endpoint, this PubChem deposit counts one and a half times the control or more as active, and values a quarter to a half above the control carry no call in these data; other NCI protocols may use other cut-offs. Some T/C values are followed by the survivors on the day toxicity was checked, most often the fifth; where none is given, no animal had died by that day.

As for `O=CNC(Cc1cccc(N(CCCl)CCCl)c1)C(=O)O` (stereo not given), the T/C is 131 % of control (dose: 25.0 mg/kg/injection, schedule: Q04DX003 (ip), vehicle: saline with Tween-80) and 127 % of control (dose: 37.5 mg/kg/injection, schedule: Q04DX003 (ip), vehicle: saline sonified).

In the case of `Cc1cc(=O)c2cc(N(C)C)ccc2[nH]1`, the survivor count under setting [1] is 6 of 6.

Take `OCC#CCO`: the survivor count (dose: 100.0 mg/kg/injection, schedule: Q01DX001 (ip), vehicle: saline) is recorded as 2 of 6; the survivor count (dose: 200.0 mg/kg/injection, schedule: Q01DX001 (ip), vehicle: saline) is on record as 0 of 6; the survivor count (dose: 400.0 mg/kg/injection, schedule: Q01DX001 (ip), vehicle: saline) is 0 of 6.

As for `CCOc1ccc(/C=N/NS(=O)(=O)c2ccc(C)cc2)cc1`, the survivor count reads like this: (dose: 100.0 mg/kg/injection, schedule: Q01DX009 (ip), vehicle: Klucel (hydroxypropylcellulose) (HPC)) 6 of 6; (dose: 400.0 mg/kg/injection, schedule: Q01DX009 (ip), vehicle: Klucel (hydroxypropylcellulose) (HPC)) 6 of 6.

As for `O=c1c(N=Nc2ccccc2)c[nH]n1-c1ccccc1`, for the setting “dose: 125.0 mg/kg/injection, schedule: Q01DX009 (ip), vehicle: saline with Tween-80”, the survivor count is listed as 6 of 7.

With `CCCCOCN(CCCc1ccccc1)COCCCC`, the T/C is, setting by setting: under setting [2], 136 % of control; under setting [3], 127 % of control.

With `CO/N=C1\CC(C)N2C(=O)C(C(C)C)NC(=O)C(NC(=O)c3c4nc5c(C(=O)NC6C(=O)NC(C(C)C)C(=O)N7C(C)CC(O)C7C(=O)N(C)CC(=O)N(C)C(C(C)C)C(=O)OC6C)ccc(C)c5oc-4c(C)c(=O)c3N)C(CO)OC(=O)C(C)N(C)C(=O)CN(C)C(=O)C12` (stereo not given), the T/C was 130 % of control (dose: 0.4 mg/kg/injection, schedule: Q01DX009 (ip), vehicle: saline + alcohol); 140 % of control (dose: 0.8 mg/kg/injection, schedule: Q01DX009 (ip), vehicle: saline + alcohol); 134 % of control (dose: 6.4 mg/kg/injection, schedule: Q01DX001 (ip), vehicle: saline + alcohol).

Consider `COc1cc(OC)c(OC)cc1/C=C/c1cc[n+](C)c2ccccc12`, for which, under setting [4], the T/C is 130 % of control and the survivor count is 6 of 6.

On to `S=c1nc[nH]c2c1ncn2C1CCCO1` (stereo not given), for which the survivor count under setting [3] was 6 of 6.

Turning to `O=C1CN(CCN2CC(=O)NC(=O)C2)CC(=O)N1`, the T/C (dose: 50.0 mg/kg/injection, schedule: Q01DX009 (ip), vehicle: steroid suspending solution) is 141 % of control; the T/C under setting [5] was 138 % of control; the T/C (dose: 400.0 mg/kg/injection, schedule: Q04DX003 (ip), vehicle: steroid suspending solution) is 129 % of control. Besides, the survivor count is 6 of 6 under setting [5]; 3 of 6 and 6 of 6 (dose: 240.0 mg/kg/injection, schedule: Q01DX010 (ip), vehicle: saline).

For the compound `Cc1cc2nc(CBr)c(CBr)nc2cc1C`, the survivor count by setting is: (dose: 9.2 mg/kg/injection, schedule: Q01DX009 (ip), vehicle: saline) 4 of 6; (dose: 14.0 mg/kg/injection, schedule: Q01DX009 (ip), vehicle: saline) 0 of 6; (dose: 21.0 mg/kg/injection, schedule: Q01DX009 (ip), vehicle: saline) 0 of 6; (dose: 28.0 mg/kg/injection, schedule: Q04DX003 (ip), vehicle: saline) 1 of 6; (dose: 40.0 mg/kg/injection, schedule: Q04DX003 (ip), vehicle: saline) 3 of 6.

As for `Cc1cc(NC(=O)NCc2ccc(N3C(N)=NC(N)=NC3(C)C)cc2)ccc1S(=O)(=O)F`, the T/C is 142 % of control (dose: 7.2 mg/kg/injection, schedule: Q01DX009 (ip), vehicle: saline); 129 % of control (dose: 11.0 mg/kg/injection, schedule: Q01DX009 (ip), vehicle: saline); 129 % of control (dose: 16.0 mg/kg/injection, schedule: Q01DX009 (ip), vehicle: saline); 131 % of control (dose: 35.0 mg/kg/injection, schedule: Q01DX009 (ip), vehicle: saline with Tween-80); 131 % of control under setting [2]; 145 % of control (dose: 65.0 mg/kg/injection, schedule: Q04DX003 (ip), vehicle: saline with Tween-80). The T/C (dose: 75.0 mg/kg/injection, schedule: Q01DX009 (ip), vehicle: saline with Tween-80) is 145 % of control; the T/C (dose: 200.0 mg/kg/injection, schedule: Q04DX003 (ip), vehicle: alcohol) is 135 % of control; the T/C (dose: 264.0 mg/kg/injection, schedule: Q04DX003 (ip), vehicle: Klucel (hydroxypropylcellulose) (HPC)) is 140 % of control; the T/C (dose: 400.0 mg/kg/injection, schedule: Q04DX003 (ip), vehicle: Klucel (hydroxypropylcellulose) (HPC)) was 140 % of control. Further, the survivor count was 5 of 6 under setting [6] and 2 of 6 under setting [7].

Consider `CC1CN1S(=O)(=O)N1CC1C` (stereo not given), for which the T/C was 136 % of control (dose: 11.0 mg/kg/injection, schedule: Q04DX003 (ip), vehicle: saline with Tween-80) and 145 % of control under setting [8]. Also, the survivor count (dose: 50.0 mg/kg/injection, schedule: Q04DX003 (ip), vehicle: saline with Tween-80) is given as 6 of 6.

Consider `O=C1c2ccccc2C(=O)c2cc3c(cc21)CCCC3`, for which the survivor count under setting [1] was 8 of 8.

For `CN(C)C(=S)NN`, the survivor count is listed as 6 of 6 (dose: 2.0 mg/kg/injection, schedule: Q01DX009 (ip), vehicle: saline with Tween-80); 6 of 6 (dose: 6.25 mg/kg/injection, schedule: Q04DX003 (ip), vehicle: saline with Tween-80); 0 of 6 under setting [8].

With `COc1cc(OC)c(NC(=O)c2ccc([N+](=O)[O-])s2)cc1Cl`, the survivor count is listed as 6 of 6 (dose: 100.0 mg/kg/injection, schedule: Q01DX005 (ip), vehicle: saline) and 6 of 6 (dose: 200.0 mg/kg/injection, schedule: Q01DX005 (ip), vehicle: saline).

As to `CCN=C(N)Nc1ccc(NC(=O)c2ccc(C(=O)Nc3ccc(NC(N)=NCC)cc3)cc2)cc1`, the survivor count (dose: 400.0 mg/kg/injection, schedule: Q04DX003 (ip), vehicle: saline with Tween-80) is 3 of 6.

Turning to `NNC(=O)NC(=O)NN`, the survivor count by setting is: (dose: 6.25 mg/kg/injection, schedule: Q01DX009 (ip), vehicle: saline) 6 of 6; (dose: 12.5 mg/kg/injection, schedule: Q01DX009 (ip), vehicle: saline) 6 of 6; under setting [4], 6 of 6; under setting [6], 5 of 6; (dose: 200.0 mg/kg/injection, schedule: Q01DX009 (ip), vehicle: saline) 0 of 6; under setting [7], 4 of 6.

Turning to `CC(C)CC(NC(=O)CF)C(=O)O` (stereo not given), where the note is “dose: 5.0 mg/kg/injection, schedule: Q01DX009 (ip), vehicle: saline”, the T/C was 132 % of control [4 of 6 alive]. The survivor count (dose: 10.0 mg/kg/injection, schedule: Q01DX009 (ip), vehicle: saline) is recorded as 2 of 6.

As to `CCCSc1ccc([N+](=O)[O-])cc1`, the survivor count (dose: 100.0 mg/kg/injection, schedule: Q04DX002 (ip), vehicle: saline with Tween-80) is 6 of 6.

With `COc1ccc(C(O)c2ccccc2C(=O)Nc2ccccc2)cc1` (stereo not given), the survivor count (dose: 400.0 mg/kg/injection, schedule: Q01DX009 (ip), vehicle: saline with Tween-80) is 6 of 6.

For `CNC(C)Cc1ccccc1OC` (stereo not given), the survivor count (dose: 100.0 mg/kg/injection, schedule: Q04DX003 (ip), vehicle: saline) was 3 of 6.
